From PubChem BioAssay AID720591 (Broad Institute, 2013)
The whole screen tested about 1,200 compounds, of which about 60 (5%) were called active. Another 1% or so got no clear call; they are omitted.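 How the source made its calls: active means Decreasing signal and fitted IC50 at most twice the top valid tested dose; inconclusive means Bad fit or a level curve showing 30 to 70% inhibition; inactive means the rest.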 The list shows a part of the results. Results with a measured potency or affinity are listed apart.

Protein sequences, listed by entry. Tags and fused reporters are not part of them. Lines headed by an entry give the natural chain unless they say otherwise; changes in a name come on top.
UniProt Q9NXA8: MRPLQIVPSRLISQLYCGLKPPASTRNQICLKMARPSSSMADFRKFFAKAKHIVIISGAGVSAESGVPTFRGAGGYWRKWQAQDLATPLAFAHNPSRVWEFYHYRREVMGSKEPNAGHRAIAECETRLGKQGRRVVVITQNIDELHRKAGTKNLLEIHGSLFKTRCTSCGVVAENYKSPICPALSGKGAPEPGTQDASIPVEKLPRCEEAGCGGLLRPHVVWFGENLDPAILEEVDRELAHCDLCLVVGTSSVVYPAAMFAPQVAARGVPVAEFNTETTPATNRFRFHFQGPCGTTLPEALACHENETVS

molecular target: NAD-dependent protein deacylase sirtuin-5, mitochondrial (Homo sapiens) (UniProt Q9NXA8); test: sirtuin-5 deacylation blockers, concentration series – biochemical, fluorescence imaging, cherry-pick, set 5, dose response (AID 720591); conditions: Purified SirT5, succinyl-peptide AMC, trypsin-coupled fluorescence; at 15 µM (top of the series) unless noted;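 further: 0% = median of neutral control wells and -100% = median of positive control wells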

Activity change, negative = inhibition, inactive:
CCN(CC)C(=O)[C@H]1C[C@H](CC(=O)NC(C)(C)C)C(=O)N2CCc3c([nH]c4cc(CCC(=O)N(C)C)ccc34)[C@]12C -2.36%
Cc1cccc(NC(=O)Nc2ccc(OCc3ccccc3)cc2)n1 20.9%
Cc1ccc(S(=O)(=O)CC(=O)Nc2ccc3nc(C)sc3c2)cc1 -6.72%
NNC(=O)c1ccccc1-n1cccc1 15.5%
Cc1nc(NC(=O)C2CC2)sc1C -15%
CC1CN(CCOc2ccccc2-c2ccccc2)CC(C)O1 (centres undefined) -17.6%
CCOC(=O)c1c(C)nc(C)c(C(=O)OCC)c1-c1ccc(OC)cc1 22.9%
Cn1c(=O)c2c(-c3ccccc3)n(-c3cccc(O)c3)cc2n(C)c1=O -8.93%
CCN(C(=O)COC(=O)CNC(=O)c1ccccc1C)C1=CCCCC1 22.5%
Oc1ccc(-c2n[nH]c(C(F)(F)F)c2-c2ccccc2)c(O)c1 -7.08%
Cc1ccccc1-c1noc(CNC(=O)c2ccco2)n1 -20.4%
COc1cc(Cl)c(CN2CCCC(CO)(Cc3cccc(Cl)c3)C2)cc1OC (centres undefined) -2.29%
COc1ccc(CNC(=O)c2cc(=O)c3cc(C)cc(C)c3o2)cc1 -10.2%
CC(C)c1ccccc1OCC(=O)Nc1ccc2[nH]ncc2c1 -17.4%
CCOC(=O)C(N)CSC1CC(=O)N(c2ccc(OCC)cc2)C1=O (centres undefined) -18.2%
O=C(NCCc1ccc(Cl)cc1)C1CCC(=O)N(C2CCCCCC2)C1 (centres undefined) 43.4%
Cc1ccc(C(=O)n2nc(-n3cccc3)c3c(C)cc(C)nc32)cc1 7.51%
COc1ccccc1N1CCN(CC(=O)Nc2ccc3c(c2)OCCO3)CC1 -20.9%
O=C(CSc1nnc(NC(=O)c2ccco2)s1)Nc1cccc(F)c1 1.98%
O=C(c1cccs1)N1CCN(c2nc3c(F)cc(F)cc3s2)CC1 19.5%
CCOC(=O)n1c(=O)n(C)c2ccc(Cl)cc21 -25.5%
CN(Cc1nc(-c2ccc(Cl)cc2)no1)C(=O)c1ccco1 -32.1%
O=C(NCC(=O)N1CCN(C(c2ccccc2)c2ccccc2)CC1)c1ccccc1Br -20.6%
CCOC(=O)c1c(C)[nH]c(C)c1C(=O)COC(=O)c1cccc(C)c1O -9.02%
O=C(N[C@@H](Cc1ccccc1)C(=O)NC1CC1)c1ccc(Cl)cc1 -20.1%
Cc1ccc(C(=O)N2CCCC2)cc1S(=O)(=O)Nc1cccc(C)c1C 11.4%
COCCCNc1ncnc2c1sc1nc(-c3ccco3)c3c(c12)CC(C)(C)OC3 16.7%
COC(=O)c1c(-c2ccc(OC)cc2)oc2ccc(-c3cc(OC)c(OC)c(OC)c3)cc12 27%
O=C(c1ccc(F)cc1)N1CCOCC1 38.5%
CCc1noc(C)c1C(=O)OCC(=O)NCc1ccc(Cl)cc1 16.2%
COc1ccccc1OCCSc1nc2ccccc2n1CC(O)CO (centres undefined) -18.9%
Cc1coc2c(C)c3oc(=O)c(CCC(=O)N[C@@H](C)C(=O)N[C@@H](Cc4ccccc4)C(=O)O)c(C)c3cc12 -1.46%
NNC(=O)Cn1c(-c2ccccc2)cc2ccccc21 11.2%
COc1ccccc1CCNS(=O)(=O)c1cc2c3c(c1)C(C)C(=O)N3CCC2 (centres undefined) -29.6%
CC(C)N(C(=O)[C@H]1C[C@H](CC(=O)NCc2ccco2)C(=O)N2CCc3c([nH]c4cc(CCC(=O)N(C)C)ccc34)[C@]12C)C(C)C 3.22%
CCN(CC(=O)Nc1ccccc1OC)C(=O)c1cc(S(=O)(=O)N2CCCCCC2)ccc1OC -27.9%
O=c1ccn(Cc2ccccc2)c2ccccc12 30.6%
COC(=O)[C@]1(C)N[C@H](CN(C)C(=O)c2ccccc2)[C@@H]2C(=O)N(C)C(=O)[C@@H]21 18.3%
O=C(NCc1csc(-c2cccs2)n1)Nc1ccc(F)cc1F -5.87%
CCCc1cc(NCCCn2ccnc2)n2nc(C)c(-c3ccccc3)c2n1 4.18%
COCC(=O)N1CCC2CC1c1cc(Cl)ccc12 (centres undefined) -32.5%
COc1ccc(CCNC(=O)Cn2ccc3c(OC)cccc3c2=O)cc1OC -20%
CC(C)=CCN1CCN(Cc2cn(C(C)C)c3ccccc23)CC1CCO (centres undefined) 18.7%
C[C@H]([C@H](O)c1ccccc1)N(C)C(=O)CN -27.8%
COc1cc(C(=O)NCCN2CCN(C(=O)c3cc(OC)c(OC)c(OC)c3)CC2)cc(OC)c1OC 3.49%
Cc1cc(C)c2nc(N3CCC(C(=O)NCC4CCCO4)CC3)sc2c1 (centres undefined) -2.27%
CN1CCN(CC(=O)Nc2nc3ccccc3s2)CC1 9.4%
Cc1ccc(OCC(O)Cn2c(N3CCCCC3)nc3c2c(=O)[nH]c(=O)n3C)cc1 (centres undefined) -4.67%
Cc1cccc(C)c1NC(=O)N1CCCCCCC1 10.8%
CCCCCCNC(=O)c1ccc(Br)o1 2.66%
C[C@@H]1CN([C@H](C)CO)C(=O)c2cccc(NS(=O)(=O)c3cccs3)c2O[C@H]1CN(C)Cc1ccccc1 -27.6%
CC(C(=O)NCc1cccs1)N1C(=O)c2ccccc2C1=O (centres undefined) 6.38%
CN(CC(=O)Nc1ccc(Cl)c(C(F)(F)F)c1)C(=O)c1cc(=O)c2ccccc2o1 -22.6%
COc1ccccc1CNS(=O)(=O)c1ccc(Br)s1 3.57%
CC(CC(=O)Nc1ccc2c(c1)c(=O)n(C)n2-c1ccc2ccccc2c1)C(F)(F)F (centres undefined) -13.6%
CC1c2nc3ccccc3n2C(CC(=O)NCc2ccccn2)C(=O)N1Cc1ccccc1 (centres undefined) 19.5%
O=C(COc1ccccc1)Nc1ncn[nH]1 -8.98%
CC(=O)OCC(C)n1[nH]c2ccccc2c1=O (centres undefined) -31.5%
Cc1ccc(S(=O)(=O)N(C)C[C@H]2OCc3cn(nn3)CCCC(=O)N([C@@H](C)CO)C[C@@H]2C)cc1 22.2%

Part of the list above in order of number of heavy atoms, rising.
Activity change, negative = inhibition, inactive:
Cc1nc(NC(=O)C2CC2)sc1C -15%
CCc1noc(C)c1C(=O)OCC(=O)NCc1ccc(Cl)cc1 16.2%
CCOC(=O)C(N)CSC1CC(=O)N(c2ccc(OCC)cc2)C1=O (centres undefined) -18.2%
CCOC(=O)c1c(C)nc(C)c(C(=O)OCC)c1-c1ccc(OC)cc1 22.9%
CC(CC(=O)Nc1ccc2c(c1)c(=O)n(C)n2-c1ccc2ccccc2c1)C(F)(F)F (centres undefined) -13.6%
